For two molecules, binding results are on record in PMC10761746.

The chains behind the UniProt entries cited, without tags or fusion partners.
UniProt P69066: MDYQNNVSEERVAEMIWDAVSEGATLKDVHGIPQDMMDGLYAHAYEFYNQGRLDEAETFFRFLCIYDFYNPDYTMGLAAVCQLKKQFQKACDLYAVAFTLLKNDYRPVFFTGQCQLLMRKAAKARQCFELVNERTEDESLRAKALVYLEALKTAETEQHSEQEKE
UniProt P0A7Z7: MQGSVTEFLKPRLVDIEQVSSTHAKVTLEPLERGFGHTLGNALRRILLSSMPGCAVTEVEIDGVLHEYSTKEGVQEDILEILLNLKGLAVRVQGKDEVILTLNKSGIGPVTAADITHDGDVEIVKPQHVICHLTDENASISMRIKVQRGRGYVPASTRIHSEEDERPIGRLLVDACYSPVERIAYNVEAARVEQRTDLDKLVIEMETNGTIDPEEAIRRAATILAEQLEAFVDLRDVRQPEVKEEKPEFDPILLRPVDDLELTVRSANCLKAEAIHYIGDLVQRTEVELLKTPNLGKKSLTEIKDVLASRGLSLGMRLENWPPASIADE

The target of test [1] is SicA two-hybrid fusion from pSR659-SicA (Salmonella enterica serovar Typhimurium) (UniProt P69066). The test is described as follows: two-hybrid.
Test [2] has as its target LexA_(DBDmut)-RpoA (UniProt P0A7Z7). Description: two-hybrid.
Test [3] has as its target His6-RpoA expressed from pET28-RpoA in S. Typhimurium invF::3xFLAG (UniProt P0A7Z7). Description: pull-down.

These are yes or no findings as the source states them, for the method shown. For part of these data: In cells and extracts the contact can be indirect. Some entries that bind do so weakly or less than the wild type. For part of these data: Sequences can lack the tags named with a protein.

B1: LexA_(DBDwt)-InvF (protein, UniProt P69343 1-216)
chain: MSFSESRHNENCLIQEGALLFCEQAVVAPVSGDLVFRPLKIEVLSKLLAFIDGAGLVDTTYAESDKWVLLSPEFRAIWQDRKRCEYWFLQQIITPSPAFNKVLALLRKSESYWLVGYLLAQSTSGNTMRMLGEDYGVSYTHFRRLCSRALGGKAKSELRNWRMAQSLLNSVEGHENITQLAVNHGYSSPSHFSSEIKELIGVSPRKLSNIIQLADK
B1: the binding entry in test [1] and in test [2] was “binds” in each case.

B2: InvF-FLAG (protein, UniProt P69343 1-216)
chain: B1 chain
B2: the binding result in test [3] is on record as “binds”.
